Experimental findings from article PMC12464768 are described below.

Protein sequences, listed by entry. Tags and fused reporters are not part of them.
UniProt P35372: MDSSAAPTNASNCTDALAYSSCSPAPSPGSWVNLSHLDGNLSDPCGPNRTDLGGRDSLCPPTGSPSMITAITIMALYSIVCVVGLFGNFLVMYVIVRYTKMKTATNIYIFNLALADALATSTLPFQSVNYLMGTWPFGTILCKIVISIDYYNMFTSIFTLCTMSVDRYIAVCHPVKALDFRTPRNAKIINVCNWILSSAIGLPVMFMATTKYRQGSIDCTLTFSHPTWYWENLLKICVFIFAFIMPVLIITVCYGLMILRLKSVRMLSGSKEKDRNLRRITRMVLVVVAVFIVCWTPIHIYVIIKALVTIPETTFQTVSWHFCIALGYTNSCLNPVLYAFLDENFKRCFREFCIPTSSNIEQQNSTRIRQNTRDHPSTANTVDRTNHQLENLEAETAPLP
UniProt Q9C0D3: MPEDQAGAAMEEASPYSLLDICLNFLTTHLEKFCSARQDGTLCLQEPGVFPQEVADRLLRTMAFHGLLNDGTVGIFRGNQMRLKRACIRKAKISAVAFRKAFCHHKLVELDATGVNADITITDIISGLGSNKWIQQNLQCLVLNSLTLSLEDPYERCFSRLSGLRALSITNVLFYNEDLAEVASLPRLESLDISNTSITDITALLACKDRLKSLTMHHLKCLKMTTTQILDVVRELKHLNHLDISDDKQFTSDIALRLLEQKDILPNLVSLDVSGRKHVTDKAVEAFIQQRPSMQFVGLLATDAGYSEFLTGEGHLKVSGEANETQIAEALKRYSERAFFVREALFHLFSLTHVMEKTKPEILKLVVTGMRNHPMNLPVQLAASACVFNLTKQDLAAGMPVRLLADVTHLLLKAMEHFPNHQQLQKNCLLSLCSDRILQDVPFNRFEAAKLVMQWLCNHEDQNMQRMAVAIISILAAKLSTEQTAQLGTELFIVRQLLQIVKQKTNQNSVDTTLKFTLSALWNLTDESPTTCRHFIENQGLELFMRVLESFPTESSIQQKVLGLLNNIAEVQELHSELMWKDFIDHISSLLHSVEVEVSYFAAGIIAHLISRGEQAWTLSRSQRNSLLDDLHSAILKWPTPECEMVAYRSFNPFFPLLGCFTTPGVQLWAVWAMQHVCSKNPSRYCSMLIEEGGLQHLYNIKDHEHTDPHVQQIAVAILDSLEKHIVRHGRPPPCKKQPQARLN
UniProt P32121: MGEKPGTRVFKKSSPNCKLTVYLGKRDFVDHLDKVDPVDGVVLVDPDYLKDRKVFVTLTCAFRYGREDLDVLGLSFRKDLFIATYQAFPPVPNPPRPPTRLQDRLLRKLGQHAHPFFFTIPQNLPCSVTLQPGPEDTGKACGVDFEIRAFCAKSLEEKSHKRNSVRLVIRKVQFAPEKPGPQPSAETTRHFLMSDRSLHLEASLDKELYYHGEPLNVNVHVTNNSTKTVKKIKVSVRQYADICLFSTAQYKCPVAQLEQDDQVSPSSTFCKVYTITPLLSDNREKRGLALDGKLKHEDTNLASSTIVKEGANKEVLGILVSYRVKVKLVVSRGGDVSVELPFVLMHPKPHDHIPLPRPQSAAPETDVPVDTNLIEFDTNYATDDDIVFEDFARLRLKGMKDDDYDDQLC

No constants are given. Whether binding was seen depends on the method and setting. Binding seen in cells or lysates may run through a third protein. Some binding calls cover weakened binding; strength is not graded here. Where a sequence is shown, tags or fusion partners need not be part of it.

For assay [1], the target named is Flag-tagged human μ-opioid receptor (human) (UniProt P35372). The experiment in a line: proximity ligation; HEK293T transfected with Flag-tagged hMOR and HA-tagged proteins, fixed and subjected to PLA imaging.
For assay [2] the target is unchanged. Put plainly: co-IP; HEK293T transfected with Flag-tagged hMOR and HA-tagged interacting proteins; lysates immunoprecipitated with an anti-Flag antibody, eluates blotted with an anti-HA antibody.

On to “HA-tagged ZYG11B (from UniProt Q9C0D3 1-744)”, for which the binding entry in assay [1] and in assay [2] was “binds” in each case.

“HA-tagged β-arrestin-2 (from UniProt P32121 1-409)”: the binding result in assay [1] and in assay [2] was “binds” in each case.

B1: HA-tagged Septin7 (protein, UniProt Q16181 1-437)
chain: MSVSARSAAAEERSVNSSTMVAQQKNLEGYVGFANLPNQVYRKSVKRGFEFTLMVVGESGLGKSTLINSLFLTDLYSPEYPGPSHRIKKTVQVEQSKVLIKEGGVQLLLTIVDTPGFGDAVDNSNCWQPVIDYIDSKFEDYLNAESRVNRRQMPDNRVQCCLYFIAPSGHGLKPLDIEFMKRLHEKVNIIPLIAKADTLTPEECQQFKKQIMKEIQEHKIKIYEFPETDDEEENKLVKKIKDRLPLAVVGSNTIIEVNGKRVRGRQYPWGVAEVENGEHCDFTILRNMLIRTHMQDLKDVTNNVHYENYRSRKLAAVTYNGVDNNKNKGQLTKSPLAQMEEERREHVAKMKKMEMEMEQVFEMKVKEKVQKLKDSEAELQRRHEQMKKNLEAQHKELEEKRRQFEDEKANWEAQQRILEQQNSSRTLEKNKKKGKIF
For B1, the binding result in assay [1] and in assay [2] was “binds” in each case.
